Values of other authors as cited in patent US6443892B1, “Sweat collecting device and methods for use and detection of tampering” (The United States of America as represented by the …, priority 2000, dated 2002).

Settings: patch applied seven days after skin contamination, normal hygiene

SMILES	drug found in pad of sweat patch
CN1[C@H]2CC[C@@H]1[C@@H](C(=O)O)[C@@H](OC(=O)c1ccccc1)C2 [BE, benzoylecgonine]	deposited in the pad
CC(=O)Oc1ccc2c3c1O[C@H]1[C@@H](OC(C)=O)C=C[C@H]4[C@@H](C2)N(C)CC[C@@]341 [heroin]	deposited in the pad
CN[C@@H](C)Cc1ccccc1 [methamphetamine]	deposited in the pad
